From paper PMC3625198 come the findings set out here.

By UniProt entry, the sequences of proteins in these tests, tags left out. Where a name states a change or a piece, a line headed by the entry shows the natural chain unless it says otherwise. Residues count along the entry.
UniProt O00206, residues 24-839: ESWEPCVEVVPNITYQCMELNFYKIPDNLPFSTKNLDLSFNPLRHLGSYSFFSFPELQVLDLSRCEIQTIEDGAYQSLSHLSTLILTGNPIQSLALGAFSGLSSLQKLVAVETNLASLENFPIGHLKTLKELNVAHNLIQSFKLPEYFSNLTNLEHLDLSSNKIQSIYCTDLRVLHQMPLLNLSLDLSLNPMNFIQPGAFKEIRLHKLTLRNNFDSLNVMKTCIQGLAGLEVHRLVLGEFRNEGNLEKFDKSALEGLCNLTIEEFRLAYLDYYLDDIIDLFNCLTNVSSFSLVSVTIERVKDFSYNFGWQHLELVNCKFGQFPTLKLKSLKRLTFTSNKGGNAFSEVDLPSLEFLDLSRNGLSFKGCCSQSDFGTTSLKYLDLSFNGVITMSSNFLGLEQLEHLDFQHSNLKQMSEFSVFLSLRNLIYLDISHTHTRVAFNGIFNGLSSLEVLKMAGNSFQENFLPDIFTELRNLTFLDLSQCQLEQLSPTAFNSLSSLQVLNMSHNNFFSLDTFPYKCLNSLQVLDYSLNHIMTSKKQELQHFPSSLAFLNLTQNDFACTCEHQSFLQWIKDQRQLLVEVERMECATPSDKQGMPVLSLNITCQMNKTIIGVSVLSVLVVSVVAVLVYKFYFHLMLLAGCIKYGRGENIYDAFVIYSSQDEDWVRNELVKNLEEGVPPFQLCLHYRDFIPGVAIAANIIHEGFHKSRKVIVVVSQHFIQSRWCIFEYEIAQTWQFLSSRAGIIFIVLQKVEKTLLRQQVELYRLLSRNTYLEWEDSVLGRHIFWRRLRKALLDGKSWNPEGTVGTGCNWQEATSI
UniProt O60603: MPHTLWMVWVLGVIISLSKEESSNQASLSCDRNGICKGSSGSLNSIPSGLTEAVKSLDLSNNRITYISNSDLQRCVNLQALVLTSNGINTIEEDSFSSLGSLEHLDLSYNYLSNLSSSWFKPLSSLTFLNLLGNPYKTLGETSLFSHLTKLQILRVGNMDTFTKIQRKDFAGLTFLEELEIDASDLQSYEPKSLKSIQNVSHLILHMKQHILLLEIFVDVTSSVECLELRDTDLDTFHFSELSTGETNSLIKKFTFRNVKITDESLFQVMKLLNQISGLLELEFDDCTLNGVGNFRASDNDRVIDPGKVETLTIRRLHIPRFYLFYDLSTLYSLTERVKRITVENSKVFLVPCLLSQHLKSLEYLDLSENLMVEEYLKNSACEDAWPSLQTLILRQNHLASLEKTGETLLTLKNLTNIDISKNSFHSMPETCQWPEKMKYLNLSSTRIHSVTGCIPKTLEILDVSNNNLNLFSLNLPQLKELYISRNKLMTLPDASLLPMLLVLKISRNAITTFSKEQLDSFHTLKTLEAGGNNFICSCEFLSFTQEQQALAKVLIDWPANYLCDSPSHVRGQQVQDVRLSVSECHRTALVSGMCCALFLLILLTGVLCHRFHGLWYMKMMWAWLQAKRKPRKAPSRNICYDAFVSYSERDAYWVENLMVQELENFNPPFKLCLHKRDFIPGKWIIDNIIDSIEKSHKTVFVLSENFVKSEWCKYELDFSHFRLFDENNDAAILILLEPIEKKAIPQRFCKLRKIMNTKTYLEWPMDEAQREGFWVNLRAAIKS

The target of experiment [1] is Toll-like receptor 4 (human (endogenous in human amniotic epithelial cells)) (UniProt O00206). Kind of experiment: condition: only cells not stimulated with Ureaplasma; FRET or BRET; acceptor photobleaching FRET on fixed primary human amniotic epithelial cells, not stimulated; TLR2 labelled with Cy3-antibody (donor), other receptors with Cy5-antibody (acceptor). In general terms: BRET reads energy transfer from a luciferase to a nearby fluorophore.

Experiment [2] concerns the target T1, Toll-like receptor 6 (human (endogenous in human amniotic epithelial cells)) (UniProt Q9Y2C9).
T1 sequence: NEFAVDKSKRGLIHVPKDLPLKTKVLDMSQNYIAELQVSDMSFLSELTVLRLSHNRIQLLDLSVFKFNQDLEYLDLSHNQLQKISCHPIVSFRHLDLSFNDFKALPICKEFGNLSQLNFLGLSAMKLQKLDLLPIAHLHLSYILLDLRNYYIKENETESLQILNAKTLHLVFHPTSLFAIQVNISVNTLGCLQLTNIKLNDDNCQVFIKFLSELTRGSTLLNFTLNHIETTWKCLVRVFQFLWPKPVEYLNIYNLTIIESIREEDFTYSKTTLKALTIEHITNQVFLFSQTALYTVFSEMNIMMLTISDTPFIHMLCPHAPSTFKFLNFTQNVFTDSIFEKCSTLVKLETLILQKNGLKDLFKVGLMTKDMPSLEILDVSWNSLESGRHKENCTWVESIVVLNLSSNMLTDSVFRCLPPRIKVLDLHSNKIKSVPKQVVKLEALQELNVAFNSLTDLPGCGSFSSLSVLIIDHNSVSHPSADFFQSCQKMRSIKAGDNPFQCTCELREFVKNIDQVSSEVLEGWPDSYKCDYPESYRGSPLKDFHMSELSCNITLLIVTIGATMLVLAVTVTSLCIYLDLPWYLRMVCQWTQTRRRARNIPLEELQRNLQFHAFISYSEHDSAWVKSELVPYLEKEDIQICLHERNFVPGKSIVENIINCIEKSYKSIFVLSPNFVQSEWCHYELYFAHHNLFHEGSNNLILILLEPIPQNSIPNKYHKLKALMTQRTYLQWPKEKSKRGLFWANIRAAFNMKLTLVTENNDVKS
The experiment is described as above.

The target in experiment [3] is Toll-like receptor 4 (human (endogenous in human amniotic epithelial cells)) (UniProt O00206). Kind of experiment: FRET or BRET; acceptor photobleaching FRET on fixed primary human amniotic epithelial cells stimulated 1 h with Ureaplasma parvum SV3, SV14 or U. urealyticum SV2 (1x10^8 bacteria/ml to 1x10^7 cells/ml); TLR2 Cy3-antibody (donor), other receptors Cy5-antibody (acceptor).

Experiment [4] has the same target. The experiment in a line: condition: only cells stimulated with MBA (1 µg/ml); FRET or BRET; acceptor photobleaching FRET on fixed primary human amniotic epithelial cells stimulated 1 h with MBA (1 µg/ml); TLR2 Cy3-antibody (donor), other receptors Cy5-antibody (acceptor).

These are yes or no findings as the source states them, for the method shown. Binding seen in cells or lysates may run through a third protein. Some entries that bind do so weakly or less than the wild type.

On to “Toll-like receptor 2 (from UniProt O60603 21-784)”, for which the binding result in experiment [1] is given as “no binding”; in experiment [2], “no binding”; in experiment [3], “binds weakly”; in experiment [4], “no binding”.
